Results taken from patent publication US20240252560A1, “LACTOBACILLUS RHAMNOSUS-DERIVED VESICLE AND USES THEREOF” (MD HEALTHCARE INC., priority 2021, published 2024).
At least one structure is not confirmed: it was looked up by name or label, or the drawing left a doubt.

Columns and labels:
Format in all cases: in vivo
[1] = system: NF-κB and iNOS; test: NF-κB phosphorylation and iNOS expression in mouse lung tissue (Western blotting), poly(I:C) model
[2] = system: inflammatory cells in airway lavage fluid; test: Inflammatory cells in airway lavage fluid, poly(I:C) immune disease mouse model; details: C57BL/6 mice, intranasal poly(I:C); vesicles oral every other day; dexamethasone i.p. 2 mg/kg
[3] = system: pulmonary tissue; test: Pulmonary tissue changes (H&E staining), poly(I:C) immune disease mouse model; details: C57BL/6 mice, intranasal poly(I:C); vesicles oral; dexamethasone i.p. 2 mg/kg
[4] = system: splenic T cells; test: Cytokine secretion from splenic T cells, poly(I:C) immune disease mouse model; details: poly(I:C) mice, T cells stimulated with anti-CD3 and anti-CD28 antibodies

C[C@@H]1C[C@H]2[C@@H]3CCC4=CC(=O)C=C[C@]4(C)[C@@]3(F)[C@@H](O)C[C@]2(C)[C@@]1(O)C(=O)CO [dexamethasone]
phosphorylation of NF-κB (p-NF-κB, p-p65) increased by poly(I:C) [1]: inhibited | number of inflammatory cells in airway lavage fluid increased by poly(I:C) [2]: significantly inhibited | shape of the alveoli in pulmonary tissue (H&E) [3]: maintained relatively uniform | IFN-γ secretion from splenic T cells [4]: ineffective | IL-6 secretion from splenic T cells [4]: ineffective
